Values quoted from earlier work, collected in patent publication US20230086303A1 (priority 2016, published 2023).
Some entries share one result that the patent states for a list of compounds.

Settings: in vivo; cited from earlier work

half-life, greater than 48 hours:
C[C@]12CC3C[C@](C)(C1)C[C@@](N)(C3)C2 [memantine, 3,5-dimethyladamantan-1-amine]
NS(=O)(=O)Cc1noc2ccccc12 [zonisamide]
CCC1(C)CC(=O)NC1=O (stereo not drawn) [ethosuximide]
